{"source": "paper PMC10022743", "biological_target": "T1, HA–YKT6-WT (full-length, siRNA-resistant) (human), O15498", "T1 chain": "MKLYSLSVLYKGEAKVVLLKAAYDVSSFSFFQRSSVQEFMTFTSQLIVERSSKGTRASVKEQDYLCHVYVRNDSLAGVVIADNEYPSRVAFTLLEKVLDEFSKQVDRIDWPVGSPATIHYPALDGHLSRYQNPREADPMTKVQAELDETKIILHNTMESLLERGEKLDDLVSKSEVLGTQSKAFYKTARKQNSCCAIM", "assay": "co-IP; YKT6 siRNA-treated HEK293T cells stably expressing HA–YKT6 constructs, 2 h EBSS and 300 nM Torin 1; lysis in TNE buffer with 1% Triton X-100; HA–agarose beads, 2 h at 4°C; western blot", "conditions": "remark: other sources report otherwise", "note": "Results are given in words; binding and its absence hold for the method and conditions named. In cells and extracts the contact can be indirect. Some results given as binding are weak or reduced against the parent protein; the word gives no strength. Tags and fused reporters may be left off the sequences shown."}
{"binder": "SNAP29, O95721 1-258 (protein) MSAYPKSYNPFDDDGEDEGARPAPWRDARDLPDGPDAPADRQQYLRQEVLRRAEATAASTSRSLALMYESEKVGVASSEELARQRGVLERTEKMVDKMDQDLKISQKHINSIKSVFGGLVNYFKSKPVETPPEQNGTLTSQPNNRLKEAISTSKEQEAKYQASHPNLRKLDDTDPVPRGAGSAMSTDAYPKNPHLRAYHQKIDSNLDELSMGLGRLKDIALGMQTEIEEQDDILDRLTTKVDKLDVNIKSTERKVRQL", "values": [{"measurement": "binding", "result": "binds"}]}
